Reference: patent publication US20030180396A1, “Method of effecting phosphorylation in eucaryotic cells using thiamine triphosphate” (INSTITUT PASTEUR, priority 1999, published 2003)

Experiment: Phosphoamino acid analysis of phosphorylated 43K rapsyn
Design: species or system Torpedo marmorata
Settings: FIGS. 6, 7

Molecule	Paa analysis
43K-rapsyn/ATP: 43K rapsyn phosphorylated with ^32P-ATP (protein, UniProt Q13702 2-412, looked up, 32P-phosphorylated (ATP), 43K rapsyn phosphorylated with ^32P-ATP) 43 kDa receptor-associated …: GQDQTKQQIEKGLQLYQSNQTEKALQVWTKVLEKSSDLMGRFRVLGCLVTAHSEMGRYKEMLKFAVVQIDTARELEDADFLLESYLNLARSNEKLCEFHKTISYCKTCLGLPGTRAGAQLGGQVSLSMGNAFLGLSVFQKALESFEKALRYAHNNDDAMLECRVCCSLGSFYAQVKDYEKALFFPCKAAELVNNYGKGWSLKYRAMSQYHMAVAYRLLGRLGSAMECCEESMKIALQHGDRPLQALCLLCFADIHRSRGDLETAFPRYDSAMSIMTEIGNRLGQVQALLGVAKCWVARKALDKALDAIERAQDLAEEVGNKLSQLKLHCLSESIYRSKGLQRELRAHVVRFHECVEETELYCGLCGESIGEKNSRLQALPCSHIFHLRCLQNNGTRSCPNCRRSSMKPGFV	P-Ser
43K-rapsyn/TTP: 43K rapsyn phosphorylated with ^32P-TTP (protein, UniProt Q13702 2-412, looked up, 32P-phosphorylated (TTP), 43K rapsyn phosphorylated with ^32P-TTP) 43 kDa receptor-associated …: GQDQTKQQIEKGLQLYQSNQTEKALQVWTKVLEKSSDLMGRFRVLGCLVTAHSEMGRYKEMLKFAVVQIDTARELEDADFLLESYLNLARSNEKLCEFHKTISYCKTCLGLPGTRAGAQLGGQVSLSMGNAFLGLSVFQKALESFEKALRYAHNNDDAMLECRVCCSLGSFYAQVKDYEKALFFPCKAAELVNNYGKGWSLKYRAMSQYHMAVAYRLLGRLGSAMECCEESMKIALQHGDRPLQALCLLCFADIHRSRGDLETAFPRYDSAMSIMTEIGNRLGQVQALLGVAKCWVARKALDKALDAIERAQDLAEEVGNKLSQLKLHCLSESIYRSKGLQRELRAHVVRFHECVEETELYCGLCGESIGEKNSRLQALPCSHIFHLRCLQNNGTRSCPNCRRSSMKPGFV	P-His
